Reference: PMC4860565

Chains of the proteins cited; added tags and fusions are not shown. Residues count along the entry.
UniProt Q6P6C2, 66-292: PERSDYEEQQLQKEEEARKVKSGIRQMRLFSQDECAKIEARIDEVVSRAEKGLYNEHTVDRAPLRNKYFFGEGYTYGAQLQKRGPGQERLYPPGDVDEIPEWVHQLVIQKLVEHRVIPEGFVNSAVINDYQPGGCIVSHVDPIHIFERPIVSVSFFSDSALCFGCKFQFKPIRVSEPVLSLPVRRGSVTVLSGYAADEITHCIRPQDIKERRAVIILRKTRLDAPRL

Experiments:
Assay in all cases: EMSA
YTHDF2 (Homo sapiens) = molecular target: T1, YTHDF2 (Homo sapiens) (UniProt Q9Y5A9); conditions: 1 mM MgCl2, very little or no binding, up to 5 uM protein; m6A at position 5 of each strand; EMSA: 10 mM HEPES pH 7.3, 5% glycerol, 20 mM KCl, 1 mM MgCl2, 1 mM DTT, RNasin, 4 nM RNA, 4 C; recombinant protein; residues 385-576; label: 3' biotin
T1 sequence (looked up): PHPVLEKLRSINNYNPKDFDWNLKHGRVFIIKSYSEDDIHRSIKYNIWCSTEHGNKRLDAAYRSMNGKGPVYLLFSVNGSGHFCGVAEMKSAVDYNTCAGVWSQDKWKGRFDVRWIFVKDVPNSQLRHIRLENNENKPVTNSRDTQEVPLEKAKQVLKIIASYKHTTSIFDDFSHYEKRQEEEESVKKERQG

ALKBH5 (Homo sapiens) = ALKBH5 (Homo sapiens) (UniProt Q6P6C2); conditions: 1 mM MgCl2, authors suspect biotin label blocks binding (unlabelled 25 binds in MST); m6A at position 5; EMSA: 10 mM HEPES pH 7.3, 5% glycerol, 20 mM KCl, 1 mM MgCl2, 1 mM DTT, RNasin, 4 nM RNA, 4 C; recombinant protein; residues 66-292; protein details: His6 (pNIC28-Bsa4); label: 3' biotin
FTO (Homo sapiens) = FTO (Homo sapiens) (UniProt Q9C0B1); conditions: 1 mM MgCl2, authors suspect biotin label blocks binding (unlabelled 25 binds in MST); m6A at position 5; EMSA: 10 mM HEPES pH 7.3, 5% glycerol, 20 mM KCl, 1 mM MgCl2, 1 mM DTT, RNasin, 4 nM RNA, 4 C; recombinant protein; residues 1-505; protein details: His6 (pNIC28-Bsa4); label: 3' biotin

Sequence: GCGGACUAGUCCGC / GCGGACUAGUCCGC [biotin-15]
- binding result (YTHDF2 (Homo sapiens)): no binding

Sequence: GCGGACUCCACCGC [biotin-25]
- binding result (ALKBH5 (Homo sapiens)): no binding
- binding result (FTO (Homo sapiens)): no binding

No signal at the amounts used counts as a negative. For part of these data: Protein sequences can lack the tags named with them.
